Source: paper PMC3567142
Results are given in words; binding and its absence hold for the method and conditions named. Binding seen in cells or lysates may run through a third protein. These calls come from enrichment with a bait or labelling near it, and not all partners need be listed. For some assays here: Tags and fused reporters may be left off the sequences shown.

Sequences of proteins named here, by UniProt entry; tags and fusion partners are left off.
UniProt P35201: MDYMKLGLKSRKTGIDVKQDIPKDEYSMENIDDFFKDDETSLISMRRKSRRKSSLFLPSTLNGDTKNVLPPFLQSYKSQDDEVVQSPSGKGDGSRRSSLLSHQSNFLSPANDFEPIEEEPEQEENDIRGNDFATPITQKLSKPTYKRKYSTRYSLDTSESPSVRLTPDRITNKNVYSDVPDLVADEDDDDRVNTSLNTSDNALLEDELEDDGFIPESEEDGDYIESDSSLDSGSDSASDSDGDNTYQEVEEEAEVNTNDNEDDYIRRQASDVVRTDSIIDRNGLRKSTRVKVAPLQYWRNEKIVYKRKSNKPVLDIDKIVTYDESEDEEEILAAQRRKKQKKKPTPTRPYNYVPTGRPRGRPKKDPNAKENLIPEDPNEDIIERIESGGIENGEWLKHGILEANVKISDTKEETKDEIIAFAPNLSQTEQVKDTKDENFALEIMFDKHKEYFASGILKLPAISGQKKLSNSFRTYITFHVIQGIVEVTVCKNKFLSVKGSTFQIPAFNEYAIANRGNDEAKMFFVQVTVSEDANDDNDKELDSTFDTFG

T1: Mub1-Flag (budding yeast) (UniProt Q03162)
T1 sequence: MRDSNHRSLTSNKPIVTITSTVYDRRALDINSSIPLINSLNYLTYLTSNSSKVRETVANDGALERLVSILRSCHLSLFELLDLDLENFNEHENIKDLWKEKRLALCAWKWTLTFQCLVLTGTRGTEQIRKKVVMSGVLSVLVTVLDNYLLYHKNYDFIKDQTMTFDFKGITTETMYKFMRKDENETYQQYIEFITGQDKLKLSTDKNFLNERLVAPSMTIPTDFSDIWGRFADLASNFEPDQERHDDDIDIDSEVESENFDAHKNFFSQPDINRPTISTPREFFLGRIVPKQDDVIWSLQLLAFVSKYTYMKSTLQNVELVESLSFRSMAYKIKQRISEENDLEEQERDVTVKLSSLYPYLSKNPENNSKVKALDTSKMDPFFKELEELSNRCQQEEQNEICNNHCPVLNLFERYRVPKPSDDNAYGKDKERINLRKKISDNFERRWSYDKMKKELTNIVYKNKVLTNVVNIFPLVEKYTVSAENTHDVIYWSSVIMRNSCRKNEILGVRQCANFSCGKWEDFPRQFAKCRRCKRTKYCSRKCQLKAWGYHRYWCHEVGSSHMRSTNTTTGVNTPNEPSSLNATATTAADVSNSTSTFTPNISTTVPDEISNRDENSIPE


How the values were obtained:
[1] = biological target: T1, Mub1-Flag (budding yeast); test: affinity purification with mass spectrometry; Flag-tagged bait purified from budding yeast; associated proteins eluted with detergent and analysed with LTQ-Orbitrap
[2] = biological target: CENP-C^Mif2-Flag (budding yeast) (UniProt P35201); test: as above

binding [1]	binding [2]	Molecule
binds	–	CENP-C^Mif2 (from UniProt P35201 1-549)
–	binds	Mub1 (protein, UniProt Q03162 1-620) MRDSNHRSLTSNKPIVTITSTVYDRRALDINSSIPLINSLNYLTYLTSNSSKVRETVANDGALERLVSILRSCHLSLFELLDLDLENFNEHENIKDLWKEKRLALCAWKWTLTFQCLVLTGTRGTEQIRKKVVMSGVLSVLVTVLDNYLLYHKNYDFIKDQTMTFDFKGITTETMYKFMRKDENETYQQYIEFITGQDKLKLSTDKNFLNERLVAPSMTIPTDFSDIWGRFADLASNFEPDQERHDDDIDIDSEVESENFDAHKNFFSQPDINRPTISTPREFFLGRIVPKQDDVIWSLQLLAFVSKYTYMKSTLQNVELVESLSFRSMAYKIKQRISEENDLEEQERDVTVKLSSLYPYLSKNPENNSKVKALDTSKMDPFFKELEELSNRCQQEEQNEICNNHCPVLNLFERYRVPKPSDDNAYGKDKERINLRKKISDNFERRWSYDKMKKELTNIVYKNKVLTNVVNIFPLVEKYTVSAENTHDVIYWSSVIMRNSCRKNEILGVRQCANFSCGKWEDFPRQFAKCRRCKRTKYCSRKCQLKAWGYHRYWCHEVGSSHMRSTNTTTGVNTPNEPSSLNATATTAADVSNSTSTFTPNISTTVPDEISNRDENSIPE
